Measured values taken from article PMC7047322.

Protein sequences, listed by entry. Tags and fused reporters are not part of them.
UniProt P26447: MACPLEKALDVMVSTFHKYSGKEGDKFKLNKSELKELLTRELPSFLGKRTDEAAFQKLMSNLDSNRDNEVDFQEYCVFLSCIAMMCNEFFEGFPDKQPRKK
UniProt P19474: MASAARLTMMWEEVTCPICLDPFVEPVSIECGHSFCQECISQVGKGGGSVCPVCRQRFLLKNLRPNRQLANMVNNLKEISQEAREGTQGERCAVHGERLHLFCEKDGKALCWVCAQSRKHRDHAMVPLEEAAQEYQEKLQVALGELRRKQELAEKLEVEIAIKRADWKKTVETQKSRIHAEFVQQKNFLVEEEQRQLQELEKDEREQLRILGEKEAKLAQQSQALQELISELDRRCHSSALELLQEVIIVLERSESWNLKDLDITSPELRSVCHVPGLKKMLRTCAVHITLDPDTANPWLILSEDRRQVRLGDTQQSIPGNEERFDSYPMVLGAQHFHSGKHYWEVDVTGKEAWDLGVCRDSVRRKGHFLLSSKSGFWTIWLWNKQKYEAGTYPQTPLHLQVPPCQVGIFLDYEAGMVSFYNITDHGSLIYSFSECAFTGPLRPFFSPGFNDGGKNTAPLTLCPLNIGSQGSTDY

Biological target: S100A4 (human (endogenous in LoVo and HCT116)) (UniProt P26447)
Assay: affinity purification with mass spectrometry; endogenous S100A4 precipitated from lysates (IP lysis buffer) of PGCCs with daughter cells with rabbit anti-S100A4 monoclonal antibody (1:50, 4°C overnight) and protein A/G agarose beads; normal rabbit IgG as negative control; co-precipitates analysed by MS/MS (Q Exactive plus)

binding: binds
Substance: tripartite motif-containing 21 (TRIM21) (from UniProt P19474 1-475)

No constants are given. Whether binding was seen depends on the method and setting. Binding seen in cells or lysates may run through a third protein. Here binding means that the protein was enriched with, or labelled near, the bait; the list need not be complete.
